According to PubChem BioAssay AID1487 (National Center for Advancing Translational Sciences (NCATS), 2009):
Some of the results follow. These are further read-outs of the screen, such as a control signal, another cell line or another target. No call is given for them. Most of these compounds were active or inconclusive in the main read-out, so they are no random draw. Words in brackets tell the shape of the fitted curve; partial curves, single points and poor fits give uncertain potencies.

Assay: qHTS Assay for Modulators of Lamin A Splicing
Settings: HeLa LMNA splicing GFP/RFP minigene ratio, 48 h
How it was run: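 Read-out is the ratio of GFP to DsRed2 object intensity, acquired by 488 nm laser-scanning cytometry on HeLa lamin A-EGFP minigene reporter cells. Compound incubation 48 hrs at 37 °C in Opti-MEM with 2% FBS; DMSO 0.5% final.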

[1] = measured here: GFP splicing reporter channel
[2] = measured here: RFP viability control channel

Compound | AC50 [1] | AC50 [2]
COCCCNS(=O)(=O)c1ccc(SC)cc1 | 35.5 µM [rising, single point] | –
CCc1c(C)nc2ncnn2c1N1CCC(C(=O)Nc2ccc(C)cc2)CC1 | – | 31.6 µM [rising, single point]
Cc1ccc2cc(C)c(Sc3nnnn3-c3ccccc3)nc2c1 | – | 0.251 µM [rising, full curve, poor fit]
CN=C1c2ccccc2CN1c1cccc(C(=O)OC)c1 | – | 12.6 µM [rising, single point]
Cc1ccccc1C(=O)NCC(=O)O | 2.24 µM [rising, full curve, poor fit] | –
CSc1cccc(CN2CCC(CO)(Cc3cccc(C(F)(F)F)c3)CC2)c1 | 22.4 µM [falling, partial curve, poor fit] | 22.4 µM [falling, partial curve]
C=CCN1c2ccccc2[C@]23C[C@@H](C(=O)OC)N(S(=O)(=O)CCCC)C2=NC(C(=O)OC)=C(C(=O)OC)[C@H]13 | 0.631 µM [falling, single point] | –
ClCC1NCC(c2ccccc2Cl)c2c1[nH]c1ccccc21 (configuration not stated) | – | 17.8 µM [falling, single point]
O=S(=O)(Nc1ccc(-n2cccc2)cc1)c1ccc(Cl)c(Cl)c1 | 2.82 µM [falling, partial curve, poor fit] | 10 µM [falling, partial curve]
O=C(Nc1ccc(N2CCCCC2)c(Cl)c1)c1ccc2c(c1)OCCO2 | 11.2 µM [rising, partial curve, poor fit] | 17.8 µM [rising, single point]
COc1ccc(CNc2ncnc3ccc(-c4ccc5c(c4)OCO5)cc23)c(OC)c1 | 10 µM [falling, partial curve] | –
N#CCSc1nc2sc3c(c2c(=O)n1C1CCCCC1)CCCC3 | 2.51 µM [rising, partial curve, poor fit] | –
COc1ccc(-c2nnn(CC(=O)N(CCO)C(C(=O)NC3CCCC3)c3ccncc3)n2)cc1 (configuration not stated) | 0.794 µM [falling, full curve, poor fit] | –
CN(C(=O)CSc1nc2ccccc2n1Cc1cccc(C(F)(F)F)c1)c1ccccc1 | – | 31.6 µM [rising, single point]
COc1cccc(-c2cc(C(=O)Nc3nc4ccccc4s3)c3ccccc3n2)c1 | – | 20 µM [rising, partial curve, poor fit]
CCOC(=O)c1c(NC(=O)Cn2nnc3ccccc32)sc2c1CCC(C)C2 (configuration not stated) | – | 12.6 µM [rising, partial curve]
CN(c1ccccc1)C1CCCCC1NS(=O)(=O)c1ccc(Cl)cc1 (configuration not stated) | 15.8 µM [rising, single point] | 14.1 µM [rising, partial curve]
CS(=O)(=O)N1CCC(Oc2ccccc2C(=O)N2CCCCC2CO)CC1 (configuration not stated) | – | 0.708 µM [falling, partial curve, poor fit]

Compound | AC50 [1] | AC50 [2]
O=C(CSc1nnc(NC(=O)c2ccccc2F)s1)Nc1ccccc1F | 0.0398 µM [falling, full curve, poor fit] | 2.24 µM [falling, full curve, poor fit]
Cc1ccc2c(c1)c1ncnc(N3CCN(c4ccccc4)CC3)c1n2C | 12.6 µM [rising, partial curve] | 25.1 µM [rising, single point]
Cc1ccc(OCCNC(=O)c2cncc(Br)c2)cc1C | – | 35.5 µM [falling, single point]
COc1ccccc1CNC(=O)c1ccc2nc3[nH]c4ccccc4c3nc2c1 | – | 1.78 µM [rising, full curve, poor fit]
Cc1nn(-c2cccc(Cl)c2)c2c1C(c1ccncc1)C(C#N)=C(N)O2 (configuration not stated) | 22.4 µM [rising, single point] | 35.5 µM [rising, single point]
CC(C)NC(=O)C1COc2ccccc2O1 (configuration not stated) | 35.5 µM [falling, single point] | –
Cc1cc2ccccc2n2c(SCC(=O)Nc3ccc(S(=O)(=O)N4CCCCC4)cc3)nnc12 | – | 14.1 µM [rising, single point]
Cc1ccc(-c2nc3ccccc3s2)cc1S(=O)(=O)N1CCCC1 | – | 35.5 µM [rising, single point]
COc1ccc(CNC(=O)c2cc(C)nc3c2c(C)nn3-c2cccc(Cl)c2C)cc1 | 35.5 µM [falling, single point] | 25.1 µM [falling, single point]
O=C(CSc1ncnc2c1oc1ccccc12)NCc1ccco1 | – | 5.62 µM [rising, single point]
O=C(Nc1ccc(O)c(-c2nc3ccccc3o2)c1)C1(c2ccc(Br)cc2)CCCC1 | – | 0.355 µM [falling, partial curve, poor fit]
CCOC(=O)c1nnc(-c2ccccc2)nc1Sc1c(Cl)cccc1Cl | 14.1 µM [falling, single point] | 25.1 µM [falling, single point]
COc1ccc(C2SCCN2C(=S)Nc2ccc(F)cc2)cc1 (configuration not stated) | – | 20 µM [rising, single point]
CCCN(Cc1ccccc1)C(=O)Nc1ccc2c(c1)nnn2C | – | 17.8 µM [rising, single point]
CCOC(=O)c1sc(NC(=O)c2cccc(S(=O)(=O)N3CCN(C)CC3)c2)cc1C | 12.6 µM [rising, single point] | –
COc1cc(CNc2ccc3[nH]c(=O)[nH]c3c2)cc(Cl)c1OCc1ccccc1F | 1.41 µM [falling, full curve, poor fit] | 35.5 µM [falling, partial curve, poor fit]
COc1ccc(C2C(C(=O)c3ccccc3)=C(C)Nc3nc4ccccc4n32)cc1OC (configuration not stated) | 3.98 µM [falling, full curve, poor fit] | 2.51 µM [falling, full curve]
NC(CSCC(=O)O)C(=O)O (configuration not stated) | – | 35.5 µM [falling, single point]

Reprinted at random: two records from the list, in no set order.
Compound | AC50 [1] | AC50 [2]
CCOC(=O)c1c(NC(=O)Cn2nnc3ccccc32)sc2c1CCC(C)C2 (configuration not stated) | – | 12.6 µM [rising, partial curve]
COCCCNS(=O)(=O)c1ccc(SC)cc1 | 35.5 µM [rising, single point] | –
